# From the supplement of paper PMC6411743
# ± gives the standard deviation of the averaged measurements. Only a part is listed here, and it is no random draw.
# Experiments:
# Assay in all cases: NP40-soluble protein abundance relative to vehicle (solubility fold change) (ratio); higher = more soluble protein in presence of ATP
# [1] = biological target: T1, A6NK28 and related entries (UniProt Q13163)
# T1 sequence (whole entry): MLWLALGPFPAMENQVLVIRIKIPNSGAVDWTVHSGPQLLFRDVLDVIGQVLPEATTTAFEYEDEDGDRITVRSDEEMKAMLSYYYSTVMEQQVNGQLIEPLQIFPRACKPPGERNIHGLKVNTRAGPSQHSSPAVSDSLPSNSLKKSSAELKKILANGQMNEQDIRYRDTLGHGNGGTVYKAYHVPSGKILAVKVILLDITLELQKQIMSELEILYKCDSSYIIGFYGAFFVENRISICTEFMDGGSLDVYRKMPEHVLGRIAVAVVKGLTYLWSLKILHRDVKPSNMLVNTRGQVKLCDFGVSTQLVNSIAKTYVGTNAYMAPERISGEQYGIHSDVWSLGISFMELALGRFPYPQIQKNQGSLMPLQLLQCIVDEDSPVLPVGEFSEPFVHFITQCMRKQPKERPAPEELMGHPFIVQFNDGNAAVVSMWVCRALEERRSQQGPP
# Method in brief: (§1)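 Values are fold changes against the detergent-processed vehicle, based on vsn-normalised intensities. Jurkat crude lysate was treated at eight concentrations from 0.1 to 10 mM (10 min at room temperature, then 3 min at 37 °C), solubilised with 0.8% NP40 and benzonase, ultracentrifuged and analysed by TMT-labelled LC-MS/MS over three independent experiments.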
# [2] = biological target: T2, A8K878 and related entries (UniProt P55145)
# T2 sequence (whole entry): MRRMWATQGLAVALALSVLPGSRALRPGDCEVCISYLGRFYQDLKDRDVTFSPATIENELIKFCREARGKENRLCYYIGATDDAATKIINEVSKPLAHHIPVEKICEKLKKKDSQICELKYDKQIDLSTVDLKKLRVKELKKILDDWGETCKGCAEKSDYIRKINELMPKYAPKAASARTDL
# Method in brief: as §1
# [3] = biological target: T3, A9IYQ1 and related entries (UniProt Q9NTI5)
# T3 sequence (whole entry): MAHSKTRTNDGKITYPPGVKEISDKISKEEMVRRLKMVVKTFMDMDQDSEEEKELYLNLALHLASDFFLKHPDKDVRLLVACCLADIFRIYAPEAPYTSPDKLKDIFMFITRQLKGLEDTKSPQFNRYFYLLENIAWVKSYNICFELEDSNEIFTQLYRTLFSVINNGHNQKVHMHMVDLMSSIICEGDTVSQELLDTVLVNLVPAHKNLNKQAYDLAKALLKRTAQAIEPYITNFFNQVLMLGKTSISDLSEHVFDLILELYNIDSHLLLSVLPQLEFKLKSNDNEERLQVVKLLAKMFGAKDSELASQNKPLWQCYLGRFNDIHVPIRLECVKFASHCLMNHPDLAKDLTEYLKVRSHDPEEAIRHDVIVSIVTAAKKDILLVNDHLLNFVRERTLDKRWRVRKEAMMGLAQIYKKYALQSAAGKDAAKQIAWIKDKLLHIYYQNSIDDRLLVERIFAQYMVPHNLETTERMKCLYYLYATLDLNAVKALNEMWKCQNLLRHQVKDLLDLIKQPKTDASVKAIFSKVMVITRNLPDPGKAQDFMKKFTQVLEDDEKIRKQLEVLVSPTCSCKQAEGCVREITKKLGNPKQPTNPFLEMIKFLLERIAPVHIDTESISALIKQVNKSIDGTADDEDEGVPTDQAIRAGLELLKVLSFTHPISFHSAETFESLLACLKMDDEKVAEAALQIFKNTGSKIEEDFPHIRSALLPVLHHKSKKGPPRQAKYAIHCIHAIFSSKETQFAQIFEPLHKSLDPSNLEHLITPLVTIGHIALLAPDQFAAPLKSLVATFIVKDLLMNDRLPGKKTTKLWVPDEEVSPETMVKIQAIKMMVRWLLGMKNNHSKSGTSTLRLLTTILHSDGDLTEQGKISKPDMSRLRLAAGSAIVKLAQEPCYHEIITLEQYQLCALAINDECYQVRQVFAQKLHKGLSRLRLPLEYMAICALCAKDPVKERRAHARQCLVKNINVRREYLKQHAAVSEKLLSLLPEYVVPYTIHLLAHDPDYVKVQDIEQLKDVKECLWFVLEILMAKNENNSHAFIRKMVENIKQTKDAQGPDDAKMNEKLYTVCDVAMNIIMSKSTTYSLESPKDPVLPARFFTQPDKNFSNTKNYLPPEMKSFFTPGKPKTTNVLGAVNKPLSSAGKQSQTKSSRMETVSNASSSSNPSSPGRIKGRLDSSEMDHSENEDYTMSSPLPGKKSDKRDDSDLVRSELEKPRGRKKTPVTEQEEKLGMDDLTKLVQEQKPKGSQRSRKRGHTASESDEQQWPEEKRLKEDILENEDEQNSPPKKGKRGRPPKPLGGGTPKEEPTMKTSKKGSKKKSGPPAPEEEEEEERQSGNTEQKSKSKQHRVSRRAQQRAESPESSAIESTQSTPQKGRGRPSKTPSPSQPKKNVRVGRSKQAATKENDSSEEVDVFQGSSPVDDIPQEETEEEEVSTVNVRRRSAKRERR
# Method in brief: as §1
# ARHGAP10 = biological target: T4, ARHGAP10 (UniProt A1A4S6)
# T4 sequence (whole entry): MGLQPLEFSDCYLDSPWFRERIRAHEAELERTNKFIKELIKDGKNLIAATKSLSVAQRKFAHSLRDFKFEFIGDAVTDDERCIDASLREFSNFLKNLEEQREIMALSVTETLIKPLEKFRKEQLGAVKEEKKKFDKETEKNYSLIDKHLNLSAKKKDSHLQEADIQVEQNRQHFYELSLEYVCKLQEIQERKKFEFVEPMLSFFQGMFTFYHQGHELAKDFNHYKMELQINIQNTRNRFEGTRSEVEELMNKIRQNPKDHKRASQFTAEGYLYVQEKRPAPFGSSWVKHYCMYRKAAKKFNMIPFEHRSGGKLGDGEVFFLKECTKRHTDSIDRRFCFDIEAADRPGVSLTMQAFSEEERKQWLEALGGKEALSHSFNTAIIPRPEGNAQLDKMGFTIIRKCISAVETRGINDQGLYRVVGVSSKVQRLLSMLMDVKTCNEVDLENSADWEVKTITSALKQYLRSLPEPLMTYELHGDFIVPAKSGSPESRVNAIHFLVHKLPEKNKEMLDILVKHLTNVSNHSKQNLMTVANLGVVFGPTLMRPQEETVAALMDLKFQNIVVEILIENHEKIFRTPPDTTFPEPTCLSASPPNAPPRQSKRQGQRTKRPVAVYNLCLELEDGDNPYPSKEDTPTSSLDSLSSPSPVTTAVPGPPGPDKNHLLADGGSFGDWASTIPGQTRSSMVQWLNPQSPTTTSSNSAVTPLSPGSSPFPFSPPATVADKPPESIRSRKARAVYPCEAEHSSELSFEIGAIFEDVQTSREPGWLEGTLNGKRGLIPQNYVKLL
# Method in brief: as §1
# [4] = biological target: T5, B0QYK0 and related entries (UniProt Q01844)
# T5 sequence (whole entry): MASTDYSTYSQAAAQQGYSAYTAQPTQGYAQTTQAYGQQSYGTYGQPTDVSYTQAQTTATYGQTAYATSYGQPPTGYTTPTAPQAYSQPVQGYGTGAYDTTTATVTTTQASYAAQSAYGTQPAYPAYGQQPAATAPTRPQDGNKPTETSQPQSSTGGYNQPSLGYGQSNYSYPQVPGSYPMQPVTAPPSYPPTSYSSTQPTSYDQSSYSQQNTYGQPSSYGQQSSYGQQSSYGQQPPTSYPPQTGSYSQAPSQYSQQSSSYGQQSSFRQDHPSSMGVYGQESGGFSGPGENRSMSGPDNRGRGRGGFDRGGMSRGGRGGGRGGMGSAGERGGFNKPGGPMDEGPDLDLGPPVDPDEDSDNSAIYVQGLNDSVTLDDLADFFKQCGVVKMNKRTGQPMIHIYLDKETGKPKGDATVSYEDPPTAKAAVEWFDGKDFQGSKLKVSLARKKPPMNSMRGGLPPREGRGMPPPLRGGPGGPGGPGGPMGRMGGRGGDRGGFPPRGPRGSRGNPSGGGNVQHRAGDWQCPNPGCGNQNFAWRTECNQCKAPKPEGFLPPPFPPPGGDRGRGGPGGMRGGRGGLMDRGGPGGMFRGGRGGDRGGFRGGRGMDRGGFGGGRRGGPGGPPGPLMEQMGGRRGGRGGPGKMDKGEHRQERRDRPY
# Method in brief: as §1
# [5] = biological target: T6, B4DH95 and related entries (UniProt Q6P9H5)
# T6 sequence (whole entry): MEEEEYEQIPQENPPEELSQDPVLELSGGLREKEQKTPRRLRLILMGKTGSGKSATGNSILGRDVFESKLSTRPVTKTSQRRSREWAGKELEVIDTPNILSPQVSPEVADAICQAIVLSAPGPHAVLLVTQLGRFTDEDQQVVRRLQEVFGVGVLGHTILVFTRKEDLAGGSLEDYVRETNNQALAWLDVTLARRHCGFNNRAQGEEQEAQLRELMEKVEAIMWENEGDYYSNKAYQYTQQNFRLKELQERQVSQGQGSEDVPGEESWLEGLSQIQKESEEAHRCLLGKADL
# Method in brief: as §1
# [6] = biological target: T7, B4DI03 and related entries (UniProt Q9BY50)
# T7 sequence (whole entry): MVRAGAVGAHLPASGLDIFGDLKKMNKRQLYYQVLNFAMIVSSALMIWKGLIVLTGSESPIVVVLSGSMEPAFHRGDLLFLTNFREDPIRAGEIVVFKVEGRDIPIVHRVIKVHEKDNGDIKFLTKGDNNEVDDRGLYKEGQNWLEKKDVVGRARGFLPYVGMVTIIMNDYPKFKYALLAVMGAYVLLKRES
# Method in brief: as §1
# [7] = biological target: T8, B5MDU6 and related entries (UniProt Q9H6V9)
# T8 sequence (whole entry): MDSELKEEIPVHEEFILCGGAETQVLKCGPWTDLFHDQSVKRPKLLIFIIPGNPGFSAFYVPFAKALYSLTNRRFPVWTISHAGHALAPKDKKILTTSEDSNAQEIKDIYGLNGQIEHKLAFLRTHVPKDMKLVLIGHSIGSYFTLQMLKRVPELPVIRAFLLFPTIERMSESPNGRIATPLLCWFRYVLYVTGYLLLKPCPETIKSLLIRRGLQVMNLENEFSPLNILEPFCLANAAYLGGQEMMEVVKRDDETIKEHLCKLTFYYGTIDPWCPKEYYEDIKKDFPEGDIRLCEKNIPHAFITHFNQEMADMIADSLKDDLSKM
# Method in brief: as §1
smiles,measurement,setting,value
Nc1ncnc2c1ncn2[C@@H]1O[C@H](COP(=O)(O)OP(=O)(O)OP(=O)(O)O)[C@@H](O)[C@H]1O [adenosine triphosphate],NP40-soluble protein abundance,[1]; concentration: 1mM,1.08 ± 0.078
same,NP40-soluble protein abundance,[1]; concentration: 2mM,1.11 ± 0.11
same,NP40-soluble protein abundance,[1]; concentration: 4mM,1.12 ± 0.077
same,NP40-soluble protein abundance,[1]; concentration: 6mM,1.15 ± 0.23
same,NP40-soluble protein abundance,[1]; concentration: 8mM,1.16 ± 0.12
same,NP40-soluble protein abundance,[1]; concentration: 10mM,1.2 ± 0.13
same,NP40-soluble protein abundance,[2]; concentration: 1mM,0.912 ± 0.085
same,NP40-soluble protein abundance,[2]; concentration: 2mM,0.912 ± 0.041
same,NP40-soluble protein abundance,[2]; concentration: 4mM,0.897 ± 0.03
same,NP40-soluble protein abundance,[2]; concentration: 6mM,0.934 ± 0.054
same,NP40-soluble protein abundance,[2]; concentration: 8mM,0.925 ± 0.029
same,NP40-soluble protein abundance,[2]; concentration: 10mM,0.82 ± 0.11
same,NP40-soluble protein abundance,[3]; concentration: 1mM,1 ± 0.029
same,NP40-soluble protein abundance,[3]; concentration: 2mM,1 ± 0.023
same,NP40-soluble protein abundance,[3]; concentration: 4mM,0.9802 ± 0.0048
same,NP40-soluble protein abundance,[3]; concentration: 6mM,0.996 ± 0.032
same,NP40-soluble protein abundance,[3]; concentration: 8mM,1.01 ± 0.021
same,NP40-soluble protein abundance,[3]; concentration: 10mM,1.02 ± 0.031
same,NP40-soluble protein abundance,ARHGAP10; concentration: 1mM,1.028 ± 0.0035
same,NP40-soluble protein abundance,ARHGAP10; concentration: 2mM,1.01 ± 0.044
same,NP40-soluble protein abundance,ARHGAP10; concentration: 4mM,1.1 ± 0.064
same,NP40-soluble protein abundance,ARHGAP10; concentration: 6mM,1.07 ± 0.066
same,NP40-soluble protein abundance,ARHGAP10; concentration: 8mM,1.06 ± 0.037
same,NP40-soluble protein abundance,ARHGAP10; concentration: 10mM,1.12 ± 0.026
same,NP40-soluble protein abundance,[4]; concentration: 1mM,0.988 ± 0.036
same,NP40-soluble protein abundance,[4]; concentration: 2mM,0.963 ± 0.025
same,NP40-soluble protein abundance,[4]; concentration: 4mM,0.929 ± 0.016
same,NP40-soluble protein abundance,[4]; concentration: 6mM,1.03 ± 0.011
same,NP40-soluble protein abundance,[4]; concentration: 8mM,0.965 ± 0.048
same,NP40-soluble protein abundance,[4]; concentration: 10mM,0.958 ± 0.038
same,NP40-soluble protein abundance,[5]; concentration: 1mM,0.969 ± 0.052
same,NP40-soluble protein abundance,[5]; concentration: 2mM,0.989 ± 0.026
same,NP40-soluble protein abundance,[5]; concentration: 4mM,0.979 ± 0.038
same,NP40-soluble protein abundance,[5]; concentration: 6mM,0.949 ± 0.063
same,NP40-soluble protein abundance,[5]; concentration: 8mM,0.973 ± 0.037
same,NP40-soluble protein abundance,[5]; concentration: 10mM,0.966 ± 0.025
same,NP40-soluble protein abundance,[6]; concentration: 1mM,0.939 ± 0.08
same,NP40-soluble protein abundance,[6]; concentration: 2mM,0.961 ± 0.014
same,NP40-soluble protein abundance,[6]; concentration: 4mM,0.912 ± 0.041
same,NP40-soluble protein abundance,[6]; concentration: 6mM,0.973 ± 0.054
same,NP40-soluble protein abundance,[6]; concentration: 8mM,0.91 ± 0.07
same,NP40-soluble protein abundance,[6]; concentration: 10mM,0.928 ± 0.028
same,NP40-soluble protein abundance,[7]; concentration: 1mM,1.01 ± 0.073
same,NP40-soluble protein abundance,[7]; concentration: 2mM,1.03 ± 0.11
same,NP40-soluble protein abundance,[7]; concentration: 4mM,0.968 ± 0.055
same,NP40-soluble protein abundance,[7]; concentration: 6mM,0.96 ± 0.15
same,NP40-soluble protein abundance,[7]; concentration: 8mM,1.02 ± 0.051
same,NP40-soluble protein abundance,[7]; concentration: 10mM,1.02 ± 0.091

# At a glance, some entries already given:
smiles,measurement,setting,value
Nc1ncnc2c1ncn2[C@@H]1O[C@H](COP(=O)(O)OP(=O)(O)OP(=O)(O)O)[C@@H](O)[C@H]1O [adenosine triphosphate],NP40-soluble protein abundance,[1]; concentration: 2mM,1.11 ± 0.11
same,NP40-soluble protein abundance,[1]; concentration: 4mM,1.12 ± 0.077
